Here are results for one sequence from PMC2873443.

Sequences of proteins named here, by UniProt entry; tags and fusion partners are left off.
UniProt Q04206, whole entry: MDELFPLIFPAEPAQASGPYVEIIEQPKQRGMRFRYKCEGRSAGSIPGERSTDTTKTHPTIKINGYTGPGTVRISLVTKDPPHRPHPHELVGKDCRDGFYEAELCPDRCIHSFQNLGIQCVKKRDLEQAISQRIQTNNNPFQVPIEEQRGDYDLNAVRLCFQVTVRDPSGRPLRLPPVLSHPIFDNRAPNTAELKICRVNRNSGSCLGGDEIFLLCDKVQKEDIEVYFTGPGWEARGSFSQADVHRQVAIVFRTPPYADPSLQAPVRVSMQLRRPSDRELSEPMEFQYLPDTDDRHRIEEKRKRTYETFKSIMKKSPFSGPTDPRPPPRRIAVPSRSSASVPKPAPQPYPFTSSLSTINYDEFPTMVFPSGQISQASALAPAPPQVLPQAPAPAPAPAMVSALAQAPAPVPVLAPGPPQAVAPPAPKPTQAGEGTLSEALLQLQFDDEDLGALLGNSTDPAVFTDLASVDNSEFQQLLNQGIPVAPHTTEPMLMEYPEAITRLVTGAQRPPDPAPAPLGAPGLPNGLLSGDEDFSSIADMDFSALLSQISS

For one data set, the target named is T1, NF-kB p50 homodimer (UniProt P19838).
T1 sequence (looked up, limits assumed): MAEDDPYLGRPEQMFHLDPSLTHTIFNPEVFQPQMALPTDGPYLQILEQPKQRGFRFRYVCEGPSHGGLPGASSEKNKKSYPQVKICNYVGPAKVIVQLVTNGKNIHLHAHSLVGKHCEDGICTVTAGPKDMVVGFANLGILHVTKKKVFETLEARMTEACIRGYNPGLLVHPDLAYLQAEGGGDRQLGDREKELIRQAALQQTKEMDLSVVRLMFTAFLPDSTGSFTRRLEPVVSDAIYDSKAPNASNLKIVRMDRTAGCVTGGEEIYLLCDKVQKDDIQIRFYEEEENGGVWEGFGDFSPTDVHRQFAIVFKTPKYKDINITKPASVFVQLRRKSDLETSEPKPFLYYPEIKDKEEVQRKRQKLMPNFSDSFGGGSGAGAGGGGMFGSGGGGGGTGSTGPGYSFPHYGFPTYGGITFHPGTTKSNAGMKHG
Description: EMSA supershift. The conditions noted are these: nuclear extract, basal and PMA-induced; EMSA: nuclear extract incubated 25 min with 32P probe; 6% PAGE, 0.5x TBE pH 8; temperature and salt not stated; protein in an extract; label: 32P (Klenow, [alpha-32P]-dCTP). (In general: In EMSA bound probe runs differently from free probe, usually more slowly.)

For data set [1], the target named is NF-kB p65 (RelA) homodimer (UniProt Q04206). Description: EMSA supershift. The conditions noted are these: nuclear extract, PMA 0.1 ug/ml 30 min, stronger in K562 than K562/Adr; EMSA: nuclear extract incubated 25 min with 32P probe; 6% PAGE, 0.5x TBE pH 8; temperature and salt not stated; protein in an extract; label: 32P (Klenow, [alpha-32P]-dCTP).

For at least one entry, the source does not settle the construct or the ends of the probe. At least one result comes from cells or an extract, where the contact may be indirect. For some assays here: Where a protein sequence is shown, tags need not be part of it.

For the sequence “AGCTATGTGGGTTTTCCCATGAGC (double strand) [IL6 promoter NF-kB oligonucleotide]”, the binding result (with NF-kB p50 homodimer; in data set [1]) was “binds” throughout.
